Certain results were filed several times, with different values. This is not the full list of results. An entry can have further records. The records of an entry differ, and nothing given here explains why; dose, time, organism, isomer or construct need not be as stated for each record.
Target: CNGA2RE:A4RE:B1b (Rattus norvegicus, UniProt A0A8I5ZN27+Q00195+Q64359, R430E/R538E)
Test: Concentration-activation relationship and activation by fluorescent ligands, patch-clamp
Format: biochemical
Settings: Hill coefficient of high affinity component; H was set to unity (fixed)

Sequences of proteins named here, by UniProt entry; tags and fusion partners are left off. Residues count along the entry.
UniProt A0A8I5ZN27, 1-858 isoform 2: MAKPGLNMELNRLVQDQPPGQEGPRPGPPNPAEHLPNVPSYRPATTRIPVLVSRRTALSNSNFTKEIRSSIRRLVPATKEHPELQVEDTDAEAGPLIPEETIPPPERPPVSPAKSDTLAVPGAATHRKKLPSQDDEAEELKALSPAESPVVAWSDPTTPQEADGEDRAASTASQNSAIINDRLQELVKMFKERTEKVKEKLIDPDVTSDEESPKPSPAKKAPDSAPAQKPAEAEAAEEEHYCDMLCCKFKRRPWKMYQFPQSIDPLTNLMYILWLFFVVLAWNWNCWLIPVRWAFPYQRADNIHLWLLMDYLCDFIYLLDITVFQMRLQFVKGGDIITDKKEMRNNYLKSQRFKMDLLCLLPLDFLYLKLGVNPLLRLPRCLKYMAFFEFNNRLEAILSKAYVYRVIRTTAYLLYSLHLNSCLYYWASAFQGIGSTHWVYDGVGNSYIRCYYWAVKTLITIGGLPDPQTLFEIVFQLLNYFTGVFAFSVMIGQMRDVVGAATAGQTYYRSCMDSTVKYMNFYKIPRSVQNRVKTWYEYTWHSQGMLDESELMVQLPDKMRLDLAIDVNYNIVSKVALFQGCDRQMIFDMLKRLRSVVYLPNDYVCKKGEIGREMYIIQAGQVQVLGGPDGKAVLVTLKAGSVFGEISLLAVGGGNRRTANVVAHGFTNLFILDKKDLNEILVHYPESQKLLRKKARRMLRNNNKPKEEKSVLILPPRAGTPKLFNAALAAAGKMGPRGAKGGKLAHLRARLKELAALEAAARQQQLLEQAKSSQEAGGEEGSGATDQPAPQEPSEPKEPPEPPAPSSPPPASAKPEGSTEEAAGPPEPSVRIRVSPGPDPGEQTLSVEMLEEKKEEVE
UniProt Q00195, whole entry R538E: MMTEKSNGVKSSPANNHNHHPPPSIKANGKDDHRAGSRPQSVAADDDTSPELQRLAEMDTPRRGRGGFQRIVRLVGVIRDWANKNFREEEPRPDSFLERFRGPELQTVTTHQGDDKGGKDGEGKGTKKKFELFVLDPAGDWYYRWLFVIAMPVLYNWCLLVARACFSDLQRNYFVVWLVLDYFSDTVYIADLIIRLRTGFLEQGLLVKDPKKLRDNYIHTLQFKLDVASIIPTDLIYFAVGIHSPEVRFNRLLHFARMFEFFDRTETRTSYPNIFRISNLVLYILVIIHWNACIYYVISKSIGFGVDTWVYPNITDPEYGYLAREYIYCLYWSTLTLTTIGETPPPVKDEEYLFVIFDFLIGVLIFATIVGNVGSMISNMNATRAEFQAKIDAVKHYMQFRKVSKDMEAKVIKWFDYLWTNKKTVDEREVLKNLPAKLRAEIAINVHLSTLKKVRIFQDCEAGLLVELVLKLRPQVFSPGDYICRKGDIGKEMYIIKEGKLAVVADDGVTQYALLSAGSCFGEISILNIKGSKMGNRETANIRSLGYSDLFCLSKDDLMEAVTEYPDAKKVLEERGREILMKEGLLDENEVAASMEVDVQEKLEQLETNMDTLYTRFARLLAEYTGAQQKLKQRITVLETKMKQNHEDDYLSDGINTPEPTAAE
UniProt Q64359, whole entry R430E: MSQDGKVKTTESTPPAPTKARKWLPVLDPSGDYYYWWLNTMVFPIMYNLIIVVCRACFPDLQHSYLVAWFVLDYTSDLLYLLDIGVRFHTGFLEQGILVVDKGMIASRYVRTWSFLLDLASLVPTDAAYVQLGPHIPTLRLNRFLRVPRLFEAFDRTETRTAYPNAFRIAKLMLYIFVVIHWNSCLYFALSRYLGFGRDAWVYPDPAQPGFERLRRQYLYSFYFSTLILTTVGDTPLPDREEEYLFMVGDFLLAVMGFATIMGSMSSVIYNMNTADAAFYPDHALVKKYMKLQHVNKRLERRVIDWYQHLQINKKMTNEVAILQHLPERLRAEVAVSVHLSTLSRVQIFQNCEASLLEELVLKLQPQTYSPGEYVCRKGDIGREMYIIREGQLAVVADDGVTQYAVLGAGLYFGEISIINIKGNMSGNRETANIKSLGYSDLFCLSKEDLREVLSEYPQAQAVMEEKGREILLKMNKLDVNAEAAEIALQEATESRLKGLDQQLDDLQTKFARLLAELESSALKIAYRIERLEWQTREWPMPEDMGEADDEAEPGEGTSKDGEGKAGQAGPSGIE

Q: Which Hh does the source give for Nc1nc2c(ncn2[C@@H]2O[C@@H]3COP(=O)(O)O[C@H]3[C@H]2O)c(=O)[nH]1 [cGMP] here?
A: Its Hh is 1.0 and 1 ^··.

From paper PMC4942689, “Deciphering the function of the CNGB1b subunit in olfactory CNG channels” (Scientific Reports, 2016)
